From paper doi:10.1101/534271
These are yes or no findings as the source states them, for the method shown. Binding seen in cells or lysates may run through a third protein. Some binding calls cover weakened binding; strength is not graded here.

Amino acid sequences for entries named in this document (tags omitted).
UniProt Q07243: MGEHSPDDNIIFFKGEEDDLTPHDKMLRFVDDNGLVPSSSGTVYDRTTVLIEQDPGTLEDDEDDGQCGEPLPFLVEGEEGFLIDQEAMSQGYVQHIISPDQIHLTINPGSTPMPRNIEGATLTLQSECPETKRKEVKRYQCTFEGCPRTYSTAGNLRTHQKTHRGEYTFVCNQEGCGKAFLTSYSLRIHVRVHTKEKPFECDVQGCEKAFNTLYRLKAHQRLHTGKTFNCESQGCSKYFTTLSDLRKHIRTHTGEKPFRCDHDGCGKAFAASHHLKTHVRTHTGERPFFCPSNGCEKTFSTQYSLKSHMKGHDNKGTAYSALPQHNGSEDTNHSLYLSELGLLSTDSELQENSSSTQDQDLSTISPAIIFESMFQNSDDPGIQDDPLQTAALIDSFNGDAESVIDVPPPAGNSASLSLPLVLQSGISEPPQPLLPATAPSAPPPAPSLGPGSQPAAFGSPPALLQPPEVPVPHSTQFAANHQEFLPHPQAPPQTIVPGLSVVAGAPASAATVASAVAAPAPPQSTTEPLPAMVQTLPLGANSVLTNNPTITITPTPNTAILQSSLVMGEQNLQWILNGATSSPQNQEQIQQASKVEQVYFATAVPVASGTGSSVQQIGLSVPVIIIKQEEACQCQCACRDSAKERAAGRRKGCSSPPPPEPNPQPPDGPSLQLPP
UniProt P10085: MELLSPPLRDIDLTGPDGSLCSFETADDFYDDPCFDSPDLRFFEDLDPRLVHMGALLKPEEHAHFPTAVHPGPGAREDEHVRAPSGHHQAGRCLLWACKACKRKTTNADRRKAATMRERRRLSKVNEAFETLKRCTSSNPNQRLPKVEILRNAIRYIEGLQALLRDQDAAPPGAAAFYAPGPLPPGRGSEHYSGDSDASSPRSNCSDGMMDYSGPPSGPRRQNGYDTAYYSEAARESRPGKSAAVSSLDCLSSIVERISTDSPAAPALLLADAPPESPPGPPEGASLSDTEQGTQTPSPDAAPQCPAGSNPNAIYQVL

Target: MTF1 (mouse (endogenous in primary myoblasts from mouse satellite cells)) (UniProt Q07243)
Experiment: co-IP

For MyoD (from UniProt P10085 1-318), the binding was “binds”.
